Assay results published in PubChem BioAssay (NCI).
Most of the hits are listed elsewhere, so they are rarer here than in the full data. Active and inactive are the calls of the source. No stated cut-off is given here; in the data, active means growth inhibition above about 70%; inactive means the rest.

What was measured:
[1] = NCI Yeast Anticancer Drug Screen. Data for the wt1 strain (AID 149);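 further: 0% = growth of vehicle-treated wt1 cultures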; conditions: S. cerevisiae wt1 strain (SPY 50644) growth inhibition, stronger effect = higher value
Outline: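 wt1 yeast, compound-treated; % growth inhibition vs vehicle control.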

[2] = NCI Yeast Anticancer Drug Screen. Data for the rad50EPP+ strain (AID 151);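 further: 0% = growth of vehicle-treated control cultures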; conditions: S. cerevisiae rad50 mutant strain, stronger effect = higher value
Outline: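 Yeast strain carrying rad50 alteration (rad50EPP+) exposed to compounds; growth inhibition measured relative to vehicle-treated controls.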

[3] = NCI Yeast Anticancer Drug Screen. Data for the mgt1 strain (AID 153); conditions: S. cerevisiae mgt1 mutant growth inhibition, stronger effect = higher value
Outline: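 Yeast mgt1 strain (DNA repair/cell-cycle alteration panel) exposed to compounds; growth inhibition measured relative to vehicle-treated controls.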

[4] = NCI Yeast Anticancer Drug Screen. Data for the CLN2oe strain (AID 163);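 further: 0% = growth of vehicle-only control cultures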; conditions: S. cerevisiae CLN2oe strain, stronger effect = higher value
Outline: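 Yeast cells carrying a defined cell-cycle control alteration were exposed to test compounds. Growth inhibition was scored against vehicle-treated control cultures.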

[5] = NCI Yeast Anticancer Drug Screen. Data for the sgs1 strain (AID 173);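 further: 0% = growth of vehicle-only control cultures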; conditions: S. cerevisiae sgs1 mutant, stronger effect = higher value
Outline: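 Yeast mutant strains carrying defined defects in DNA damage repair or cell cycle control were exposed to test compounds. Growth inhibition was scored against vehicle-treated controls.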

[6] = NCI Yeast Anticancer Drug Screen. Data for the rad18 strain (AID 177); conditions: S. cerevisiae rad18 mutant growth inhibition, stronger effect = higher value
Outline: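 Yeast carrying a defined DNA damage repair alteration were exposed to compounds. Growth inhibition was expressed relative to vehicle-treated controls.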

Measured: growth inhibition

CCCCN(CCCC)CC(=O)c1ccc(I)cc1
inactive: [1]; at 1.2 µM 0% | [1]; at 3.7 µM 6% | [1]; at 11.0 µM 7% | [1]; at 33.0 µM -2% | [1]; at 100.0 µM 10% | [2]; at 1.2 µM -7% | [2]; at 3.7 µM -10% | [2]; at 11.0 µM -6% | [2]; at 33.0 µM 0% | [2]; at 100.0 µM 17% | [3]; at 1.2 µM -2% | [3]; at 3.7 µM -1% | [3]; at 11.0 µM 6% | [3]; at 33.0 µM 18% | [3]; at 100.0 µM 37% | [4]; at 1.2 µM -2% | [4]; at 3.7 µM -8% | [4]; at 11.0 µM 6% | [4]; at 33.0 µM 25% | [4]; at 100.0 µM 37% | [5]; at 1.2 µM 0% | [5]; at 3.7 µM 0% | [5]; at 11.0 µM 10% | [5]; at 33.0 µM 23% | [5]; at 100.0 µM 49% | [6]; at 1.2 µM 1% | [6]; at 3.7 µM 5% | [6]; at 11.0 µM 18% | [6]; at 33.0 µM 28% | [6]; at 100.0 µM 59%

O=P1(NNc2ncccn2)SC(NN=C2CCCCC2)=NC12CCCCC2 (stereo not given)
inactive: [1]; at 1.2 µM -1% | [1]; at 3.7 µM 0% | [1]; at 11.0 µM 0% | [1]; at 33.0 µM 6% | [1]; at 100.0 µM 13% | [2]; at 1.2 µM -3% | [2]; at 3.7 µM -4% | [2]; at 11.0 µM -3% | [2]; at 33.0 µM -3% | [2]; at 100.0 µM 2% | [3]; at 1.2 µM -1% | [3]; at 3.7 µM 0% | [3]; at 11.0 µM 2% | [3]; at 33.0 µM 4% | [3]; at 100.0 µM 1% | [4]; at 1.2 µM -6% | [4]; at 3.7 µM -10% | [4]; at 11.0 µM -14% | [4]; at 33.0 µM -9% | [4]; at 100.0 µM -2% | [5]; at 1.2 µM -3% | [5]; at 3.7 µM -3% | [5]; at 11.0 µM -2% | [5]; at 33.0 µM -1% | [5]; at 100.0 µM 6% | [6]; at 1.2 µM -2% | [6]; at 3.7 µM 0% | [6]; at 11.0 µM 6% | [6]; at 33.0 µM 33% | [6]; at 100.0 µM 59%

O=C(O)C(O)C(O)C1[O][Sb][O]C1CO (stereo not given)
inactive: [1]; at 1.2 µM 0% | [1]; at 3.7 µM 0% | [1]; at 11.0 µM 1% | [1]; at 33.0 µM 1% | [1]; at 100.0 µM 0% | [2]; at 1.2 µM 0% | [2]; at 3.7 µM -3% | [2]; at 11.0 µM 0% | [2]; at 33.0 µM -1% | [2]; at 100.0 µM 2% | [3]; at 1.2 µM 1% | [3]; at 3.7 µM 5% | [3]; at 11.0 µM 3% | [3]; at 33.0 µM -5% | [3]; at 100.0 µM 6% | [4]; at 1.2 µM -1% | [4]; at 3.7 µM 0% | [4]; at 11.0 µM 2% | [4]; at 33.0 µM 5% | [4]; at 100.0 µM 4% | [5]; at 1.2 µM 0% | [5]; at 3.7 µM -4% | [5]; at 11.0 µM -3% | [5]; at 33.0 µM -3% | [5]; at 100.0 µM -3% | [6]; at 1.2 µM -1% | [6]; at 3.7 µM -4% | [6]; at 11.0 µM -7% | [6]; at 33.0 µM -13% | [6]; at 100.0 µM -27%

COc1cc2c3cc1Oc1c(O)c(OC)cc4c1[C@H](Cc1ccc(cc1)Oc1cc(ccc1O)C[C@H]3N(C)CC2)N(C)CC4
inactive: [1]; at 1.2 µM 1% | [1]; at 3.7 µM -4% | [1]; at 11.0 µM -4% | [1]; at 33.0 µM -4% | [1]; at 100.0 µM -7% | [2]; at 1.2 µM -4% | [2]; at 3.7 µM -7% | [2]; at 11.0 µM -5% | [2]; at 33.0 µM -1% | [2]; at 100.0 µM -4% | [3]; at 1.2 µM -9% | [3]; at 3.7 µM -2% | [3]; at 11.0 µM -4% | [3]; at 33.0 µM -16% | [3]; at 100.0 µM 4% | [4]; at 1.2 µM 1% | [4]; at 3.7 µM -1% | [4]; at 11.0 µM 6% | [4]; at 33.0 µM 3% | [4]; at 100.0 µM -1% | [5]; at 1.2 µM -6% | [5]; at 3.7 µM -5% | [5]; at 11.0 µM -3% | [5]; at 33.0 µM -5% | [5]; at 100.0 µM -6% | [6]; at 1.2 µM -4% | [6]; at 3.7 µM -13% | [6]; at 11.0 µM -12% | [6]; at 33.0 µM -12% | [6]; at 100.0 µM -10%

CCOC(=O)CNP(=S)(OCC)OCC
inactive: [1]; at 1.2 µM -2% | [1]; at 3.7 µM -1% | [1]; at 11.0 µM 0% | [1]; at 33.0 µM 0% | [1]; at 100.0 µM 2% | [2]; at 1.2 µM -3% | [2]; at 3.7 µM -5% | [2]; at 11.0 µM -3% | [2]; at 33.0 µM -6% | [2]; at 100.0 µM 0% | [3]; at 1.2 µM 0% | [3]; at 3.7 µM -2% | [3]; at 11.0 µM -1% | [3]; at 33.0 µM -1% | [3]; at 100.0 µM -30% | [4]; at 1.2 µM 0% | [4]; at 3.7 µM 2% | [4]; at 11.0 µM 2% | [4]; at 33.0 µM 3% | [4]; at 100.0 µM 1% | [5]; at 1.2 µM -2% | [5]; at 3.7 µM -2% | [5]; at 11.0 µM -2% | [5]; at 33.0 µM -2% | [5]; at 100.0 µM 2% | [6]; at 1.2 µM -2% | [6]; at 3.7 µM -2% | [6]; at 11.0 µM -1% | [6]; at 33.0 µM -1% | [6]; at 100.0 µM 2%

Cc1cc[c]([Sb]2[O]C(CO)C(C(O)C(O)C(=O)O)[O]2)cc1 (stereo not given)
inactive: [1]; at 1.2 µM 1% | [1]; at 3.7 µM -1% | [1]; at 11.0 µM 1% | [1]; at 33.0 µM 0% | [1]; at 100.0 µM -1% | [2]; at 1.2 µM -1% | [2]; at 3.7 µM -1% | [2]; at 11.0 µM -1% | [2]; at 33.0 µM -3% | [2]; at 100.0 µM 0% | [3]; at 1.2 µM 0% | [3]; at 3.7 µM -11% | [3]; at 11.0 µM 2% | [3]; at 33.0 µM 1% | [3]; at 100.0 µM 2% | [4]; at 1.2 µM 0% | [4]; at 3.7 µM 2% | [4]; at 11.0 µM 1% | [4]; at 33.0 µM 4% | [4]; at 100.0 µM 6% | [5]; at 1.2 µM -2% | [5]; at 3.7 µM -3% | [5]; at 11.0 µM -3% | [5]; at 33.0 µM -3% | [5]; at 100.0 µM -3% | [6]; at 1.2 µM -2% | [6]; at 3.7 µM -4% | [6]; at 11.0 µM -9% | [6]; at 33.0 µM -17% | [6]; at 100.0 µM -26%

O=C(CCN1CC1)Nc1ccccc1
inactive: [1]; at 1.2 µM -2% | [1]; at 3.7 µM -2% | [1]; at 11.0 µM -3% | [1]; at 33.0 µM -1% | [1]; at 100.0 µM 52% | [2]; at 1.2 µM -1% | [2]; at 3.7 µM 4% | [2]; at 11.0 µM 4% | [2]; at 33.0 µM 7% | [2]; at 100.0 µM 0% | [3]; at 1.2 µM 0% | [3]; at 3.7 µM -2% | [3]; at 11.0 µM 0% | [3]; at 33.0 µM 9% | [3]; at 100.0 µM 49% | [4]; at 1.2 µM 3% | [4]; at 3.7 µM -1% | [4]; at 11.0 µM 3% | [4]; at 33.0 µM -2% | [4]; at 100.0 µM 51% | [5]; at 1.2 µM 2% | [5]; at 3.7 µM 5% | [5]; at 11.0 µM 6% | [5]; at 33.0 µM 5% | [5]; at 100.0 µM 48% | [6]; at 1.2 µM -5% | [6]; at 3.7 µM 0% | [6]; at 11.0 µM -1% | [6]; at 33.0 µM -2% | [6]; at 100.0 µM 50%

O=C(NCP(=O)(Oc1ccccc1)Oc1ccccc1)OCc1ccccc1
inactive: [1]; at 1.2 µM -2% | [1]; at 3.7 µM -2% | [1]; at 11.0 µM 0% | [1]; at 33.0 µM -2% | [1]; at 100.0 µM -3% | [2]; at 1.2 µM -2% | [2]; at 3.7 µM -3% | [2]; at 11.0 µM -2% | [2]; at 33.0 µM -4% | [2]; at 100.0 µM -2% | [3]; at 1.2 µM -2% | [3]; at 3.7 µM -4% | [3]; at 11.0 µM 2% | [3]; at 33.0 µM -32% | [3]; at 100.0 µM 2% | [4]; at 1.2 µM -2% | [4]; at 3.7 µM 0% | [4]; at 11.0 µM -5% | [4]; at 33.0 µM -2% | [4]; at 100.0 µM 3% | [5]; at 1.2 µM -2% | [5]; at 3.7 µM -1% | [5]; at 11.0 µM 0% | [5]; at 33.0 µM -1% | [5]; at 100.0 µM -1% | [6]; at 1.2 µM -5% | [6]; at 3.7 µM -6% | [6]; at 11.0 µM -10% | [6]; at 33.0 µM -23% | [6]; at 100.0 µM -3%
